For one compound, concentration results are on record in patent US4113946A, “Δ^2,3 -1,4-Morpholine-2-carboxylic acid derivatives as antibacterial agents” (Bristol-Myers Company, priority 1977, dated 1978).

The nature of this series: in vivo. To be noted: mouse, po, 100 mg/kg.

`CC1=C(C(=O)O)N2C(=O)[C@@H](NC(=O)[C@H](N)c3ccccc3)[C@H]2SC1` [Cephalexin, cephalexin, reference compound]: the concentration at 0.5 h came out at 42400 ng/mL, the concentration at 1 h came to 23700 ng/mL, the concentration at 2 h is 9800 ng/mL and the concentration at 3.5 h is 4000 ng/mL.
